The other results are listed elsewhere or left out.
biological target: OsWRKY34 (Oryza sativa, UniProt Q0JBA9 1-250); assay: protein-binding microarray (RPBM); PBS, 2% BSA, 51.3 ng/ul salmon testes DNA, 50 uM zinc acetate, 200 nM TF, 25 C, 1 h; high values mean tight binding; conditions: protein: recombinant; tags: N-terminal polyhistidine and DsRed monomer fusion (pET32a); label: CyDye5-dUTP incorporated in the synthesized complementary strand; 3' TTTTT single-stranded linker to array surface; dsDNA, one strand shown
How it was run: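 The binding signal is fluorescence intensity per feature, in arbitrary units, read on an Axon 4000B scanner. Polyhistidine- and DsRed-tagged transcription factors (N-terminal fusions) from E. coli BL21-CodonPlus were purified on Ni–NTA and applied at 200 nM for 1 h at 25 °C to a double-stranded, BSA-blocked custom Agilent array in buffer with 50 µM zinc acetate.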

By UniProt entry, the sequences of proteins in these tests, tags left out.
UniProt Q0JBA9, entry or part of it: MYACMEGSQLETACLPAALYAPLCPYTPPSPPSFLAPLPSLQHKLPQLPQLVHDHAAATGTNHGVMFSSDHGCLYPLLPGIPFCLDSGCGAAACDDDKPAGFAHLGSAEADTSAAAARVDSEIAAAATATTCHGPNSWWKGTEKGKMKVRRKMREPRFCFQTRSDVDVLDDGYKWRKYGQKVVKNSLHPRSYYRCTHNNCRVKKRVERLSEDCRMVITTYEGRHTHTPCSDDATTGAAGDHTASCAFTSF

Row | Sequence | binding signal
1 | TACTCGTTTTCTGCCTGATCATGCGATGGAGCCATCCTTACGGAGTCACCTAGTGCAG | 8390 fluorescence intensity (a.u.)
2 | TTCTCATCTTTTCTCTTATGCTTATGCGTATCATCTAAATCGGAGTCACCTAGTGCAG | 10100 fluorescence intensity (a.u.)
3 | ACATGCGACGATCTTCTGTGTGGAGTTGGTTTCAGTGGGGCGGAGTCACCTAGTGCAG | 8270 fluorescence intensity (a.u.)
4 | GAGTGTATTTCATCTCAAGTTAGCATGCGAGTTTTTTTTACGGAGTCACCTAGTGCAG | 8210 fluorescence intensity (a.u.)
5 | CATTAAACTTTAAACAGTTTGACTTTGGTCAAAGTCAAAACGGAGTCACCTAGTGCAG | 13100 fluorescence intensity (a.u.)
6 | GCTATCACCCCAAGTACATCACTAGTATACATTATATTTTCGGAGTCACCTAGTGCAG | 8500 fluorescence intensity (a.u.)
7 | TTTTTTGCTGTAAATACTTTTTCTCCTTTTTTATAAAATACGGAGTCACCTAGTGCAG | 8580 fluorescence intensity (a.u.)
8 | GTTTTCATACTTCCACGCCTCATGTTCCATCATCGTTTCACGGAGTCACCTAGTGCAG | 11700 fluorescence intensity (a.u.)
9 | GGTTAGGTTTTTTTATAGAGGGAGTAGTATGCAATTATTTCGGAGTCACCTAGTGCAG | 9450 fluorescence intensity (a.u.)
10 | ATCGCCCGTGTCTTGTGTGATTTCACTCTCGCGAACCTTCCGGAGTCACCTAGTGCAG | 13300 fluorescence intensity (a.u.)
11 | GGGCTTGGAGATCCCGTATATGGGCCCCATCTTCTCCACTCGGAGTCACCTAGTGCAG | 9300 fluorescence intensity (a.u.)
12 | ATCTCTTTTCCAGCGGATCACACGGCTCTCTGGTTCAGAGCGGAGTCACCTAGTGCAG | 8780 fluorescence intensity (a.u.)
13 | AACCGTTTTTCAAAATTTCTAGCCCTTGCTATTCAGGTTTCGGAGTCACCTAGTGCAG | 8620 fluorescence intensity (a.u.)
14 | GCCAGTTCACTTTGTCATTGTCCTTCTTGTTCTAGAGATGCGGAGTCACCTAGTGCAG | 9210 fluorescence intensity (a.u.)
15 | TGCTGTTTTACCATTTAGTCGTACGCCGGTGGGACACCTACGGAGTCACCTAGTGCAG | 9460 fluorescence intensity (a.u.)
16 | CCCACGTATTCCCCACCTTATCTCACTGTCTCGTGGGCCCCGGAGTCACCTAGTGCAG | 10500 fluorescence intensity (a.u.)
17 | GCCCGCACGGGAGGGAGGGAGGGAGGGAGCCCTCTCTCAACGGAGTCACCTAGTGCAG | 8800 fluorescence intensity (a.u.)
18 | CCGACTGCCGCAAGCAATCTCCTGACCAACACTACCACATCGGAGTCACCTAGTGCAG | 8140 fluorescence intensity (a.u.)
19 | TCAACCTAGGCACATCTGGCCATGCACGTCTCCGGCACTCCGGAGTCACCTAGTGCAG | 8510 fluorescence intensity (a.u.)
20 | TTTCTTTCTGGTTTCGTCACTGATGTTAAATTATGTCTTTCGGAGTCACCTAGTGCAG | 8270 fluorescence intensity (a.u.)
21 | GCCGCGACGTGACGTGACGTCACGCATTTGTCACTTTCTCCGGAGTCACCTAGTGCAG | 8980 fluorescence intensity (a.u.)

Random excerpt: two records from the list.
Row | Sequence | binding signal
9 | GGTTAGGTTTTTTTATAGAGGGAGTAGTATGCAATTATTTCGGAGTCACCTAGTGCAG | 9450 fluorescence intensity (a.u.)
15 | TGCTGTTTTACCATTTAGTCGTACGCCGGTGGGACACCTACGGAGTCACCTAGTGCAG | 9460 fluorescence intensity (a.u.)

(listing goes on)

Row | Sequence | binding signal
22 | ACGAAGCCCTCGCCGCCGCTGCGATGTAACGGTTTCCCTCCGGAGTCACCTAGTGCAG | 8050 fluorescence intensity (a.u.)
23 | TATTTCGATTTGATGGCTTCCTGTTGCTTTTCCTGTTAATCGGAGTCACCTAGTGCAG | 14000 fluorescence intensity (a.u.)
24 | GTTCATTGATGAGTGTGTAACTATACTAGGTTGCTTGCTTCGGAGTCACCTAGTGCAG | 8310 fluorescence intensity (a.u.)
25 | TCATCTCCTATTTTGCAATTTTTGTAGTTATTTTCAGGTACGGAGTCACCTAGTGCAG | 10300 fluorescence intensity (a.u.)
26 | GTCGTTGTTGCTAGCTTGCCACGCCATGCTGCTCGCTTCTCGGAGTCACCTAGTGCAG | 8390 fluorescence intensity (a.u.)
27 | TCATCGCCACCATCCACGACGCCTTCGCTGCACCCGCCATCGGAGTCACCTAGTGCAG | 9280 fluorescence intensity (a.u.)
28 | GGAATTAGACGACCTTTTCTACATGCATATAGTACTTGACCGGAGTCACCTAGTGCAG | 8350 fluorescence intensity (a.u.)
29 | CACCTGACAAGCCAAATGTTGCACGCTTTTGAAATTATCTCGGAGTCACCTAGTGCAG | 10600 fluorescence intensity (a.u.)
30 | TGGCGTATCATACCATGCCCTCGTCGCAACTCGTACAATACGGAGTCACCTAGTGCAG | 10900 fluorescence intensity (a.u.)
31 | CTCGTGGTCAAATCTGAATATCCGATACTTCCGTTTCAAACGGAGTCACCTAGTGCAG | 8300 fluorescence intensity (a.u.)
32 | ATGCAGTGTGCCTACGACCACCAAGGTCCACACACCTGCTCGGAGTCACCTAGTGCAG | 8200 fluorescence intensity (a.u.)
33 | GCGATTTTTTTTCTTCCTCACCAGAACAAATCTTGTAATACGGAGTCACCTAGTGCAG | 8100 fluorescence intensity (a.u.)
34 | GTATGTGCACCTTGTTGTTTGTTTGGATTTGATTGGAGATCGGAGTCACCTAGTGCAG | 8790 fluorescence intensity (a.u.)
35 | CCATCACTAGTTCCCTACCGTACTACTACTCCTACCGTACCGGAGTCACCTAGTGCAG | 12700 fluorescence intensity (a.u.)
36 | AAACATCACCGCACCACACCGCGCACAACCCACCACATATCGGAGTCACCTAGTGCAG | 12700 fluorescence intensity (a.u.)
37 | AAGTACCCACCCACCACCACCACCACCACGCAAGAACCGCCGGAGTCACCTAGTGCAG | 9730 fluorescence intensity (a.u.)
38 | CTCTTTCTAGCTCATTGCTTTTGCTAGACTCGATATTTTACGGAGTCACCTAGTGCAG | 8420 fluorescence intensity (a.u.)
39 | TCTCATGTGGATTTGGGTGTATTACTCATCTTCACATCTACGGAGTCACCTAGTGCAG | 8130 fluorescence intensity (a.u.)
40 | AGATGCCTTTTTGTGGGTGGGAAATCATTTCCATTTCCAACGGAGTCACCTAGTGCAG | 8690 fluorescence intensity (a.u.)
41 | AACCCACACGCCTCGCTGCCTCGATTGATTGATTGATTCCCGGAGTCACCTAGTGCAG | 11800 fluorescence intensity (a.u.)
42 | TATATATATATCTGTCCGTCCGTCCTACTTGTCAAATCCACGGAGTCACCTAGTGCAG | 8850 fluorescence intensity (a.u.)

Source: publication PMC7819943, “Rice protein-binding microarrays: a tool to detect cis-acting elements near promoter regions in rice”
